{"source": "patent US5834428A", "about": "(1149336 Ontario Inc., priority 1996, dated 1998)", "test": "peptide made by a vendor (peptide synthesis; chloromethyl (Merrifield) resin for C-terminal acids; 4-methylbenzhydrylamine (MBHA) resin for C-terminal amides; 0.5 me; DCC/HOBt)", "conditions": "whole synthesis, analytical RP-HPLC, Vydac C18, 215 nm, two solvent systems, scale of the general procedure 3 mmole, acetate salts prepared from TFA salts", "note": "HELM strings list residues between dots; [ac] is acetyl, [am] amide, other brackets name non-standard units.", "data": [{"substance": "PEPTIDE1{H.A.D.G.S.F.S.D.E.M.N.T.I.L.D.N.L.A.T.R.D.F.I.N.W.L.I.Q.T.K.I.T.D}$$$$V2.0", "values": [{"measurement": "final HPLC purity", "value": 95, "unit": "%"}]}]}
